In all, about 53,000 sequences went through this assay and about 3,700 (7%) were called active.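 How the source made its calls: active means gene knockdowns whose robust z-score for IL-1 alpha signal is at least 2 or at most -2, so actives lie on both sides; inactive means the rest.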 This is one part of the list.

This assay is described as follows: Components of the Cytosolic LPS Sensing Pathway: Gene Identification via Genome-wide siRNA Screen.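 Further: robust z of the log signal after scaling to non-targeting control siRNA wells of the plate.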 The note with it: RAW264.7 macrophages, IL-1a HTRF, actives lie on both sides, screened at 100 nM (by protocol), cells primed 5 h with Pam3CSK4 first. An outline of the steps: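 Read-out: IL-1a HTRF on supernatant, divided by plate negative-control median ×100, log-transformed and converted to robust z-score. Cells were RAW264.7 given 100 nM siRNA, Pam3CSK4-primed 5 hours, then LipidA-transfected 24 hour.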
For the sequence GGCAAAAACGCGAUGAAGATT against Sync, the z-score is inactive: -0.556.
Take CGCGGGAUGAAGGAUAUAATT against Gm11541: the z-score was inactive: 0.114.
In the case of GGAUUAUUCCCUUUCUUCCTT against Sh3pxd2a, the z-score is inactive: 0.807.
On to GGCCAUCAGGUGCAAACUATT against Enc1, for which the z-score is inactive: -0.315.
Take CCUACUCGUCUCUUUCACCTT against Tlcd1: the z-score was inactive: 0.158.
Regarding “GCCAGGGUAACUCUCUAGATT against 9130008F23Rik”, the z-score was inactive: -0.715.
For GGACCUCCGCAUACGAAGATT against Slc12a5 the value was inactive: -0.216; for GGUCAAAAUAGUGUCCACCTT against Olfr628, inactive: 1.43.
Regarding GGCGUGUCUGUAAAAUCUUTT against Exo5, the z-score is inactive: 0.656.
As for “GGCUCUGCACAACCUUCUATT against 4932435O22Rik”, the z-score was inactive: -0.048.
As for CCUGUGCCUCGCGUCUUAATT against Gdf3, the z-score is inactive: 0.0375.
Consider GGUUGUAACAAACAUACUCTT against Sstr4, for which the z-score was active: 2.99.
Consider GGAAAAGGGUCGUGCCUGUTT against Gm9991, for which the z-score is inactive: -0.07.
GGUCAUUCCCAAAAGCAAGTT against Erp29: the z-score was inactive: -0.151.
Next, GGACAUUGCAUUGCUCAUGTT against Sec1: inactive: -0.526; GGAGUUUGCCGGAAGACUCTT against Ntf3: inactive: 1.08.
With GCCGCUUAAGAGGGAUUAUTT against Mrpl15, the z-score was inactive: -0.394.
On to GCUUUUACACUAAUCUAGCTT against Senp8, for which the z-score is inactive: 0.281.
For the sequence GGAAAAAUGUGGACUUCUUTT against Bhmt2, the z-score is inactive: 0.511.
With GGUCCUAUUCCUACCAUUCTT against Zfp677, the z-score was inactive: -0.86.
With GUGAAGAAAUGUUUGACACTT against Raet1b, the z-score was inactive: 0.254.
Next, GGAGGUCCCUCAUUUCAAGTT against Grik4: inactive: -0.0486; GCCUUCAAGACCACAUCCATT against Chst5: inactive: 1.32.
Consider CGACCUCGUCUACAUCUCCTT against Lingo1, for which the z-score was inactive: 1.49.
Take CCCGAGCCUCAAGAUUUACTT against Ccdc134: the z-score was inactive: 0.392.
Next, GGCAUCUAUUUCUGUGUCUTT against Rdh5: inactive: -1.27; GGAUCCAUAAUGUGCAAAATT against Musk: inactive: -0.7.
As to GCACAUAGAAACGUGUUGGTT against Fnbp1, the z-score is inactive: -0.213.
In the case of GGACCACCAAGAGGAAGUGTT against Cd300lf, the z-score is inactive: -1.03.
In the case of GGUGGAUAUUCCAUCUAUUTT against Snx14, the z-score is active: 2.76.
CGAUAUCAAGAGUGCAUGATT against Gas6: the z-score was active: 2.97.
With GCCUAAGCGAAAGUCUCUCTT against Rassf8, the z-score was inactive: 0.95.
GGUCGAUGCAAAGAUGCUGTT against Smoc1: the z-score was inactive: 0.811.
Consider GGACACCAUAUGGUUAGCUTT against Tedc1, for which the z-score is active: -2.25.
Regarding GGAGAUGUUGCCAAAAACUTT against Sprr2d, the z-score is inactive: -1.31.
Next, GGAUAUUUUGGACUCCUUATT against Ephx4: inactive: 0.387.
With GGGAAAUUGUGUAGCAGCUTT against Slc25a29, the z-score was active: -2.76.
Take CCUUUAGUUUACAGUAAGCTT against H2-M10.1: the z-score was inactive: -0.0364.
For GGCUUCAUAUUCUUUUCCCTT against Il31ra the value was inactive: -1.1; for CCCUUAAUCUUGCAUACUUTT against Zbtb39, inactive: 0.338; for GGGACAAUAACACUGUGUCTT against Slc11a1, inactive: -1.07.
Take GCUAUUCGAAUUCAUGCAUTT against Xpo1: the z-score was inactive: -0.388.
CCUCCAUCGUAUUUGACAUTT against Slc29a4: the z-score was inactive: 1.46.
Consider CGUCACUGGUGGUAUCAACTT against Trcg1, for which the z-score is inactive: 0.783.
Next, GGCAAAGAGCAAAAUUUUATT against Rap2b: inactive: 1.66; GGUUAAAGUCCUUCAGUAUTT against Tubb3: active: 2.83; UAGGCGGGAAGGCAUUUUCTT against Gngt1: inactive: 0.572.
Regarding CGCCCACCAGAAUAUAUAUTT against Il4i1, the z-score is inactive: -1.69.
For GGAAAUAGAAACAACAGGATT against Nos2 the value was inactive: -0.756; for GGUGCAAAUAAACAACAGATT against Zfpl1, inactive: -1.92; for GGAAGAAAACACUUGGUUUTT against Cant1, inactive: -0.704.
Take GGGUCAGUGUGGAGAGUACTT against Col13a1: the z-score is inactive: 0.679.
With GGAAGCAGAAUUGUAAAGATT against Hrk, the z-score was inactive: -1.09.
Turning to GCGUGUACAAGGCUAUUCATT against Stk4, the z-score is inactive: 1.19.
Consider GGUUGAUCGUGUCAUGUAGTT against Poc1b, for which the z-score is inactive: 0.0595.
As to GCACAGCUCAACGAAUUGGTT against Otp, the z-score is inactive: 0.149.
With GAUGUCGAUGCAAAUUCAATT against Fxyd1, the z-score is inactive: 0.514.
Consider GGUUUUCUUAAAAUAGGAGTT against Tat, for which the z-score is inactive: -0.205.
With GGCACACGGUUUUCAUUAATT against Pcdhb5, the z-score was inactive: 0.83.
Turning to GGGUCAUGUUUUUAAGAAGTT against Frrs1, the z-score was inactive: -1.28.
Consider GGAGGUGAGUAGUAUAGAATT against Pigr, for which the z-score was inactive: 0.998.
For the sequence GCUCUUCCAACCACCUGUATT against Rtn4rl2, the z-score is inactive: -1.7.
Take GGUUGUUUUGCACAAAUGUTT against Olfr512: the z-score is inactive: -1.49.
As to GGAAAAGGUGGAAAAGAUATT against Rell1, the z-score is inactive: 0.238.
On to GCAUUCAGACCAUGACACUTT against Trim30d, for which the z-score was inactive: 0.914.
Regarding GGCUGACAGACAAGAUUGUTT against Tfb1m, the z-score was inactive: -1.3.
For GGCAGACAGUGAGAUGACATT against Mapk12, the z-score was inactive: -0.896.
“CGCGAAUAAACCAUUUCUGTT against A130023I24Rik”: the z-score is inactive: 1.02.
For GGUCUACAACCAAAUCUGCTT against Clec7a, the z-score was inactive: -0.531.
GGUUCGUAAAGUAAAUGAGTT against Lmbrd2: the z-score is inactive: -1.16.
Next, GCUCUCGGAAUGAUUUAUATT against Acss1: inactive: 1.14.
For the sequence GGUAGUGAAAUUCUUAAAGTT against Snx10, the z-score was inactive: -0.154.
In the case of GGUUGUGGUGUACAAGAUUTT against Med18, the z-score was inactive: -0.791.
Consider GGCAUGUGCUACUUACAUGTT against Ripk1, for which the z-score was inactive: -0.33.
With GGAGACACUUACAUGCACGTT against Antxr1, the z-score was inactive: 1.27.
For CGGACAAUGCAGGUUCAUCTT against Negr1, the z-score is inactive: -0.0643.
For the sequence GGUAUCUUGCUUUCUGUGATT against Olfr847, the z-score is inactive: -1.64.
As for GGUAUUCUGGCAAGACCACTT against Aatf, the z-score is inactive: 1.31.
For GGGAAGUAUUCUGAAAUCUTT against Tsga13, the z-score is inactive: -0.0173.
Consider GAUUCAGCCAUGUGGAACATT against Aim2, for which the z-score was inactive: -1.31.
As for GGUAAUACAACUGAGAACUTT against Zfp2, the z-score is inactive: 0.39.
For GCUGGUAAAGGUUACGAAGTT against Crk the value was inactive: 0.505; for GGGAACCUUGCUUUUUACATT against Olfr1141, inactive: 0.171.
Regarding GCACCAUUAAGGUUGCCAATT against Nudt11, the z-score was inactive: -1.16.
With GGAGAGUCAAGUCUUUUCUTT against Dnal4, the z-score is inactive: 0.0546.
On to GGACUUCUUACUGGAAUCATT against Slc5a12, for which the z-score is inactive: 0.944.
As for GGGUAAAAGGCUUUUUUGUTT against St8sia6, the z-score was inactive: -0.699.
For the sequence GGAUCGCUGGUGUGUUUUUTT against Nalcn, the z-score is inactive: 0.205.
With GGAACGCAAGAACAGAAUGTT against Rps24, the z-score is inactive: 0.585.
Turning to GGGCAAACCGGAAAAACAGTT against Ccdc71, the z-score is active: -2.06.
In the case of CCAAACAAUCUUACAGGAATT against Olfr248, the z-score is inactive: 0.236.
Next, GACCAUCCUACUACUUAUGTT against Vmn1r25: inactive: 1.06.
For CCUCCCUGUCUAUUGUGCUTT against Slc35a2 the value was inactive: 1.04; for GGCACUCAAAUUCUACACCTT against Wasf2, inactive: -1.63.
Take GGUGAUUCCAUUACCUAGUTT against Pde12: the z-score is inactive: 0.572.
On to GCUUAUUUUCGAUACAUGGTT against Ddx42, for which the z-score was inactive: -0.374.
Next, GGGAAAAAUGUCUCAAACATT against Pnpla8: inactive: -0.974; CGGCCUGUACAGUCACUUATT against Zmynd12: inactive: 1.11; GGACUGGACGACAAUUAGGTT against Brms1l: inactive: -0.345.
With CCUUAUUUGUCCAUAAAAGTT against Pkdrej, the z-score is active: 2.43.
CCGUCCCUAUGAAAUCAGCTT against Lrat: the z-score was active: 2.28.
On to GGAUCUGUACCAUAGUGACTT against Lhfp, for which the z-score is inactive: 1.94.
On to GGACUUUUUCACUUUCAAATT against Ugt1a5, for which the z-score is inactive: -0.198.
For the sequence GGCAAACUCUUCCGAUGCUTT against Zfp414, the z-score is inactive: 0.688.
For GGAGAGAAGAGCAGAAAGATT against Nosip, the z-score is inactive: -0.799.
For the sequence GGCCAUAUCAUUCUUCAUUTT against Tbx18, the z-score is inactive: 0.177.
For GGGUAAGUAUUGAACUCAUTT against Slc10a1 the value was inactive: 1.06.

The values above are taken from PubChem BioAssay AID1508600 (Functional Genomics Laboratory (NCATS/FGL), 2020).
